Assay results from PMC13388955.
These are yes or no findings as the source states them, for the method shown. In cells and extracts the contact can be indirect. Some binding calls cover weakened binding; strength is not graded here. Tags and fused reporters may be left off the sequences shown.

Chains of the proteins cited; added tags and fusions are not shown.
UniProt O75643: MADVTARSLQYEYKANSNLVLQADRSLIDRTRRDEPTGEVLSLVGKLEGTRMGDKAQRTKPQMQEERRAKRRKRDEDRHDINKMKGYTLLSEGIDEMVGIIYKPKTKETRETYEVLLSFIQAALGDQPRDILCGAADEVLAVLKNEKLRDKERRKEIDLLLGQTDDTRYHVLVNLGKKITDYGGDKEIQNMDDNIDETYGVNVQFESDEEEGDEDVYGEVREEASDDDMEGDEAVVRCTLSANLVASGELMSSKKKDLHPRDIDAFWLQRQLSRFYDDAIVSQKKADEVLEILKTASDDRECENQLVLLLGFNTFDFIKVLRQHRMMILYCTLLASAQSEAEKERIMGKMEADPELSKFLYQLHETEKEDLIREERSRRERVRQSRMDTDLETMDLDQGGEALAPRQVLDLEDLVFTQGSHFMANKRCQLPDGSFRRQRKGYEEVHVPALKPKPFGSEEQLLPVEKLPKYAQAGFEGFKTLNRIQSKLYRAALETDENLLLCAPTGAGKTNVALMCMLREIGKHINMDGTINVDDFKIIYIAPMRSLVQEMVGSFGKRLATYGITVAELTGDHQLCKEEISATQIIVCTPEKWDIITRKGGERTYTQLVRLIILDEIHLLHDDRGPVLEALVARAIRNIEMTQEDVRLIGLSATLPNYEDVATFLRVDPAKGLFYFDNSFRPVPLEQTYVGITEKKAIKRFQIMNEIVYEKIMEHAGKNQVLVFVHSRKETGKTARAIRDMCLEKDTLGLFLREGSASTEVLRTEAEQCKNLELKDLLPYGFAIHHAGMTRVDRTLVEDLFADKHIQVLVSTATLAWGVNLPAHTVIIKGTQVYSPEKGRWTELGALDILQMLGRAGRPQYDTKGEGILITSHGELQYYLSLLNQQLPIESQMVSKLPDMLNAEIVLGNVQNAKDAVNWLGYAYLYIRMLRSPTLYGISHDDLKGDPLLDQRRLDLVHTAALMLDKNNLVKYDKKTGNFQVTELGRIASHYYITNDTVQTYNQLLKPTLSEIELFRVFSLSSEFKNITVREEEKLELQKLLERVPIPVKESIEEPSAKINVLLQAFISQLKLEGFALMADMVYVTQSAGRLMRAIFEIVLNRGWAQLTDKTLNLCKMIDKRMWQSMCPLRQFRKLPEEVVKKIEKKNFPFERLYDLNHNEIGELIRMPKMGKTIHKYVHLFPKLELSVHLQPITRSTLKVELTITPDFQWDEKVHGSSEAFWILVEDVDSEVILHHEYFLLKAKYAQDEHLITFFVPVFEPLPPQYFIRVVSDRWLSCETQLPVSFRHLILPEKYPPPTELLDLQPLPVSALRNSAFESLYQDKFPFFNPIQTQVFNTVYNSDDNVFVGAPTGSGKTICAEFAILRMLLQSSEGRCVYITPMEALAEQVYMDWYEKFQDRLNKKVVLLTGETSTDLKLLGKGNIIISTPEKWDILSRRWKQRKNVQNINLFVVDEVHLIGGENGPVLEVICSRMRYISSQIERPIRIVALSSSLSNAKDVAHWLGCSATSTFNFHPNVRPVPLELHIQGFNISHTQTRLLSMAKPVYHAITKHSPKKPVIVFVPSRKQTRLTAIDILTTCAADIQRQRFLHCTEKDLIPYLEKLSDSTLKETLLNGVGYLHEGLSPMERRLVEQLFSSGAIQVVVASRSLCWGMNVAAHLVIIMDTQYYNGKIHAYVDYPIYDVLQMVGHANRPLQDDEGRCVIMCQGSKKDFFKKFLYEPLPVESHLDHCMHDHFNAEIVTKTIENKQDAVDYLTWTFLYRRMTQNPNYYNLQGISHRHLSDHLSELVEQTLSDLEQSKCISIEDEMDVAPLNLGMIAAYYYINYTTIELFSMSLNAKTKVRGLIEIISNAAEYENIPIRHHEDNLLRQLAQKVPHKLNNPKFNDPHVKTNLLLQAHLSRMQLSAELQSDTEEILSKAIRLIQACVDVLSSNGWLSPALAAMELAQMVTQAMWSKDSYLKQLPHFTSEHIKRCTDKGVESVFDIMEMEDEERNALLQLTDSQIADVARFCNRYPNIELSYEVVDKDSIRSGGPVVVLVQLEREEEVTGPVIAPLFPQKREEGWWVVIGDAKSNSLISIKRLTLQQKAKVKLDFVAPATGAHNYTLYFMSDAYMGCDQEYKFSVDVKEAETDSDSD

Target: T1, wildtype DNAJC17, FLAG-tagged (human) (UniProt Q9NVM6)
T1 sequence: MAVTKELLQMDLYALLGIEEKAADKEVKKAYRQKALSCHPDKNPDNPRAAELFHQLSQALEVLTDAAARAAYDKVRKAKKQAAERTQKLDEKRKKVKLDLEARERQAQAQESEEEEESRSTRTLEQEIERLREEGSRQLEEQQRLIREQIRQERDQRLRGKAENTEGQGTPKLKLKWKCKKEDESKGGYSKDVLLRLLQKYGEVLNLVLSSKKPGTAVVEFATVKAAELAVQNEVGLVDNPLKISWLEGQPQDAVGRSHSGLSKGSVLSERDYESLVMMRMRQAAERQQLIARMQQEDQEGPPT
Experiment: co-IP; magnetic anti-FLAG M2 beads with whole cell lysates in 50 mM TrisHCl pH 7.4, 150 mM NaCl, 0.05% NP-40, protease inhibitor, RNAse inhibitor; 90 min at 4 °C; washes with 300 mM and 150 mM NaCl; eluate analysed by SDS-PAGE

binding: binds
Substance: U5 component SNRNP200 (from UniProt O75643 1-2136)
